Assay results as given in publication PMC6362213.
Results are given in words; binding and its absence hold for the method and conditions named. In cells and extracts the contact can be indirect. Some entries that bind do so weakly or less than the wild type.

Columns and labels:
[1] = target: TRAIL-R2/DR5 (human (endogenous in U87MG)) (UniProt O14763); test: condition: only after knockdown of PIM2 and PIM3 by siRNA; pull-down; DISC precipitation with biotin-TRAIL (1000 ng/mL, 90 min) and streptavidin-agarose from U87MG cells after knockdown of PIM2 and PIM3 by siRNA (48 h); two endogenous proteins in the precipitate; western blot
[2] = target: TRAIL-R2/DR5 (human (endogenous in U87MG)) (UniProt O14763); test: pull-down; same DISC precipitation with biotin-TRAIL and streptavidin-agarose from control (scrambled siRNA) U87MG cells; two endogenous proteins found together in the precipitate; western blot

p62/SQSTM1 (from UniProt Q13501 1-440)
binding [1]: no binding | binding [2]: binds
